The target in assay [1] is DDX6^Mif2 of the co-IP of Supplementary Fig. S6B (UniProt P54823). The assay is described as follows: co-IP; co-IP of wild-type, truncated and mutant DDX6 proteins (Supplementary Fig. S6A, B); cells not given; western blot.
The target of assay [2] is DDX6^Mut1 of the co-IP of Supplementary Fig. S6B (UniProt P54823). The assay is described as above.
The target of assay [3] is DDX6^Mut6 of the co-IP of Supplementary Fig. S6B (UniProt P54823). The description is as above.
The target in assay [4] is GST-DDX6^Mut6, recombinant (UniProt P54823). The assay is described as follows: pull-down; GST fusion proteins (10 μg) immobilised on Glutathione Sepharose 4B, incubated with purified His-MBP-DDX3X^166-590 in RIPA buffer; western blot; both purified.

Chains of the proteins cited; added tags and fusions are not shown. Lines headed by an entry give the natural chain unless they say otherwise; changes in a name come on top.
UniProt P54823: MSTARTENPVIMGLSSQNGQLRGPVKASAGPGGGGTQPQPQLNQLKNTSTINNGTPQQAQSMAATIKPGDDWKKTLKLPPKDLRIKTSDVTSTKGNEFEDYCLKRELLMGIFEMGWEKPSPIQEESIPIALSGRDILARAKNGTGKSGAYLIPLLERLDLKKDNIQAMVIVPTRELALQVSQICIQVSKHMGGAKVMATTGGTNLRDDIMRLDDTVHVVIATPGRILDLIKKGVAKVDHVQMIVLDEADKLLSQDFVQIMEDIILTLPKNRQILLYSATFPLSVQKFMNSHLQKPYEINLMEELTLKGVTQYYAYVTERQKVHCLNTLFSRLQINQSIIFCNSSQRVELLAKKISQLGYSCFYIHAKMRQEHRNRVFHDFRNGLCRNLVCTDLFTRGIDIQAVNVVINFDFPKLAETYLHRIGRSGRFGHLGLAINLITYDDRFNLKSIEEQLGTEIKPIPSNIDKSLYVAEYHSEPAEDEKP
UniProt Q62167: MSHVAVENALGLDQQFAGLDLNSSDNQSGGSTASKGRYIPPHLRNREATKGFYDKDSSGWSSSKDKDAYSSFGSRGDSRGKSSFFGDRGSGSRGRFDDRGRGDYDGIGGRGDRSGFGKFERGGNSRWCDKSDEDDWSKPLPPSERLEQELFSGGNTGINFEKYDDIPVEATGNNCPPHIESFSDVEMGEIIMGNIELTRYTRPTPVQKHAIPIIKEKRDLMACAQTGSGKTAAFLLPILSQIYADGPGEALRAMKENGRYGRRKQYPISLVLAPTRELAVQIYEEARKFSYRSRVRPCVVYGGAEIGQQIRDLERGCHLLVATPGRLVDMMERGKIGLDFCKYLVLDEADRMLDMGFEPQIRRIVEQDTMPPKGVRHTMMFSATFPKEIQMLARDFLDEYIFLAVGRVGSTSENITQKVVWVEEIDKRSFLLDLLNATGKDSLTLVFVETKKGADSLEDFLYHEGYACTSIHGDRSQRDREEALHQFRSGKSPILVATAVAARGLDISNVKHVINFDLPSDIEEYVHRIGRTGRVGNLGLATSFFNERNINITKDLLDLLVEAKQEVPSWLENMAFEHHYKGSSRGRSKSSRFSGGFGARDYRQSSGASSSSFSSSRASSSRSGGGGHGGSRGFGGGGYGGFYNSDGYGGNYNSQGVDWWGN
UniProt Q6ZQ08: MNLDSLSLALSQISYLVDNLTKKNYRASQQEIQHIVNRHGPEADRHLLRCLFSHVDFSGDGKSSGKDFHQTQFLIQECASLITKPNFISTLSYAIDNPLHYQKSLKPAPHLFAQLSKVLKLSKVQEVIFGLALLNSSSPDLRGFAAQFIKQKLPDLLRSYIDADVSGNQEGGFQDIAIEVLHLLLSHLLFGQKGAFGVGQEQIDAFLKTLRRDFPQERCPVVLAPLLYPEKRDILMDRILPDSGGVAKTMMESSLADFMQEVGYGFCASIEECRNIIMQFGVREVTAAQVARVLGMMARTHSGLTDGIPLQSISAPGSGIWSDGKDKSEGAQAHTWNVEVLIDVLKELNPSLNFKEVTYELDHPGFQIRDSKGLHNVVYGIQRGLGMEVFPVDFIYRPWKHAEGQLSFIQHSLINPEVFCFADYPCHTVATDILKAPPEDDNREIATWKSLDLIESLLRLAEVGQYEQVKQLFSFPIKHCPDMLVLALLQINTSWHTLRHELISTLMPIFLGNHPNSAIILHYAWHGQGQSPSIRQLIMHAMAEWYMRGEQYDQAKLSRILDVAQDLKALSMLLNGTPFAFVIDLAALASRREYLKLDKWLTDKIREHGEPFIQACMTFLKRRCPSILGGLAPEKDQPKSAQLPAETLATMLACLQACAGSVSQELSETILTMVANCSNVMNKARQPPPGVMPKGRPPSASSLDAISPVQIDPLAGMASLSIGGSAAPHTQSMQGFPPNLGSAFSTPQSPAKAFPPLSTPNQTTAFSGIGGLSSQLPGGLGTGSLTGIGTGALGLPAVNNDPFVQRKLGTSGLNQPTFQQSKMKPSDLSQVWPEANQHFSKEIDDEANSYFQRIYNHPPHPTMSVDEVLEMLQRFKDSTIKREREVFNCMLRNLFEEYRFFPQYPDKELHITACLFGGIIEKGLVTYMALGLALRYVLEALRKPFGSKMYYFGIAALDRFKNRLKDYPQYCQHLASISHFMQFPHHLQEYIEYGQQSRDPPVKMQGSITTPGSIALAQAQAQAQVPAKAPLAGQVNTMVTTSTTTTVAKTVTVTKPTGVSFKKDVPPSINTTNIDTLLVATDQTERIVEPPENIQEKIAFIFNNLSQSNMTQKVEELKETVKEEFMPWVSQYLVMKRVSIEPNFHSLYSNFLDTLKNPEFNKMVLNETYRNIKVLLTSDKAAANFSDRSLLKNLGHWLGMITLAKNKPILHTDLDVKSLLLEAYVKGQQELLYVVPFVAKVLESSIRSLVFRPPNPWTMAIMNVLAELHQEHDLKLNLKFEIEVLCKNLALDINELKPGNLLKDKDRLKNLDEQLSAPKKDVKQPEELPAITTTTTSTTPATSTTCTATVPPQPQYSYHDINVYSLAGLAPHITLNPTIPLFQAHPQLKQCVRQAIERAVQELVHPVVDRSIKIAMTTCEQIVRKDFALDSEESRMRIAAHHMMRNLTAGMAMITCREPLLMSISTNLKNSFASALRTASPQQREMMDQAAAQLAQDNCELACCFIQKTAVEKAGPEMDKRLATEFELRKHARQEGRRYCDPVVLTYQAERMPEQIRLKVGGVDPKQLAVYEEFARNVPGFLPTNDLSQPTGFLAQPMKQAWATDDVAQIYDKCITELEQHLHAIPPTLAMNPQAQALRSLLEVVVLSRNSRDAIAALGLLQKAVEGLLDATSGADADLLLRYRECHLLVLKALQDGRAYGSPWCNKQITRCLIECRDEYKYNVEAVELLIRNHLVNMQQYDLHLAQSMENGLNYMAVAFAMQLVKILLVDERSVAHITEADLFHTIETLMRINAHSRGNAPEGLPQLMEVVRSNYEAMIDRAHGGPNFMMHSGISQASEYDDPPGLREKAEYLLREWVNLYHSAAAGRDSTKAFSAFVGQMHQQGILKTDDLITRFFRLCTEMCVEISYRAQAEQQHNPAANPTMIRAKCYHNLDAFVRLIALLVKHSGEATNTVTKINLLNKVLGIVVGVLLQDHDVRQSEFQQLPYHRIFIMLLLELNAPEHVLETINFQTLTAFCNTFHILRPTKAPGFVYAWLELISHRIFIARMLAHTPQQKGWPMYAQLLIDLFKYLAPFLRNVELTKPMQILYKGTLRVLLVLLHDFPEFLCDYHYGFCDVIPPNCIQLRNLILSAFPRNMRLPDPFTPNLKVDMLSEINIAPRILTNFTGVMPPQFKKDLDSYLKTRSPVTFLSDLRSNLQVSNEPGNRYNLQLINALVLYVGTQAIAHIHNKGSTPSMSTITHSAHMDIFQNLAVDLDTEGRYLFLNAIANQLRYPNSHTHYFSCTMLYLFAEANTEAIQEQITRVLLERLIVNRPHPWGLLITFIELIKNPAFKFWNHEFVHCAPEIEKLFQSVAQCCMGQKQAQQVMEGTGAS

These are yes or no findings as the source states them, for the method shown. Binding can be weak; no strength is given. For part of these data: In cells and extracts the contact can be indirect.

“DDX3X found in the co-IP experiments of Supplementary Fig. S6 (from UniProt Q62167 1-662)”: the binding entry in assay [1], in assay [2] and in assay [3] was “binds” each time.
Take “6xHis-MBP-DDX3X^166-590 (from UniProt Q62167 166-590) (domain or fragment)”: the binding result in assay [4] was “binds”.
On to CNOT1 (from UniProt Q6ZQ08 1-2375), for which the binding result in assay [1] and in assay [3] was “binds” each time.
